Test results reported in publication PMC12073449, “Development of a Mechanism of Action-Reflective Cell-Based Reporter Gene Assay for Measuring Bioactivities of Therapeutic Glucagon-like Peptide-2 Analogues” (Molecules, 2025).

System: HEK293-GLP-2R-Luc cells

His-Gly-Asp-Gly-Ser-Phe-Ser-Asp-Glu-Met-Asn-Thr-Ile-Leu-Asp-Asn-Leu-Ala-Ala-Arg-Asp-Phe-Ile-Asn-Trp-Leu-Ile-Gln-Thr-Lys-Ile-Thr-Asp [teduglutide, [Gly2] hGLP-2 (1–33)]
log2 (TD/Ctrl) (gene ACTA2): −1.172
log2 (TD/Ctrl) (gene ADAMTSL1): 2.102
log2 (TD/Ctrl) (gene AHR): 1.187
log2 (TD/Ctrl) (gene BMPER): 2.761
log2 (TD/Ctrl) (gene C11orf96): 1.666
log2 (TD/Ctrl) (gene CACNB2): 1.036
log2 (TD/Ctrl) (gene CALCB): 2.075
log2 (TD/Ctrl) (gene CARMIL2): 1.478
log2 (TD/Ctrl) (gene CCN2): 1.203
log2 (TD/Ctrl) (gene CD24): 1.239
log2 (TD/Ctrl) (gene CD55): 1.135
log2 (TD/Ctrl) (gene CGA): 6.563
log2 (TD/Ctrl) (gene CHGB): 3.025
log2 (TD/Ctrl) (gene CLSTN2): −1.063
log2 (TD/Ctrl) (gene COL1A1): 1.489
log2 (TD/Ctrl) (gene CREM): 1.511
log2 (TD/Ctrl) (gene CXCL8): 1.295
log2 (TD/Ctrl) (gene CYP4 × 1): −1.144
log2 (TD/Ctrl) (gene DAB1): 2.622
log2 (TD/Ctrl) (gene DNER): 3.336
log2 (TD/Ctrl) (gene DUSP1): 1.044
log2 (TD/Ctrl) (gene DUSP4): 1.424
log2 (TD/Ctrl) (gene DUSP6): 1.617
log2 (TD/Ctrl) (gene ECEL1): 1.362
log2 (TD/Ctrl) (gene EMILIN2): 1.218
log2 (TD/Ctrl) (gene ETV4): 3.755
log2 (TD/Ctrl) (gene ETV5): 2.054
log2 (TD/Ctrl) (gene FAM43A): 1.109
log2 (TD/Ctrl) (gene FOSL1): 1.929
log2 (TD/Ctrl) (gene GCNA): 1.616
log2 (TD/Ctrl) (gene GEM): 1.149
log2 (TD/Ctrl) (gene GLA): 1.223
log2 (TD/Ctrl) (gene GPR3): 1.963
log2 (TD/Ctrl) (gene HMOX1): −1.207
log2 (TD/Ctrl) (gene IER3): 1.413
log2 (TD/Ctrl) (gene INHBA): 2.909
log2 (TD/Ctrl) (gene INPP5D): −2.362
log2 (TD/Ctrl) (gene INSM1): 1.381
log2 (TD/Ctrl) (gene JMJD7-PLA2G4B): −3.917
log2 (TD/Ctrl) (gene LIPG): 1.309
log2 (TD/Ctrl) (gene LOC102724428): 1.465
log2 (TD/Ctrl) (gene LOC124901228): −1.035
log2 (TD/Ctrl) (gene MAFF): 1.865
log2 (TD/Ctrl) (gene MN1): 1.083
log2 (TD/Ctrl) (gene MYOM2): 1.131
log2 (TD/Ctrl) (gene NAV2): 1.099
log2 (TD/Ctrl) (gene NDRG1): 1.067
log2 (TD/Ctrl) (gene NR4A1): 2.868
log2 (TD/Ctrl) (gene NR4A2): 2.397
log2 (TD/Ctrl) (gene NR4A3): 1.676
log2 (TD/Ctrl) (gene NTS): 3.486
log2 (TD/Ctrl) (gene PAPPA): 1.666
log2 (TD/Ctrl) (gene PCK1): 2.587
log2 (TD/Ctrl) (gene PCSK1): 4.992
log2 (TD/Ctrl) (gene PDE3A): 2.656
log2 (TD/Ctrl) (gene PDE4B): 1.541
log2 (TD/Ctrl) (gene PDE4D): 1.03
log2 (TD/Ctrl) (gene PDE7B): 1.707
log2 (TD/Ctrl) (gene PDE10A): 1.35
log2 (TD/Ctrl) (gene PDK4): 1.496
log2 (TD/Ctrl) (gene PPEF1): 1.489
log2 (TD/Ctrl) (gene PTP4A1): 1.072
log2 (TD/Ctrl) (gene RPRM): 1.289
log2 (TD/Ctrl) (gene SCARA5): 1.828
log2 (TD/Ctrl) (gene SERPINE2): 1.143
log2 (TD/Ctrl) (gene SGK1): 1.306
log2 (TD/Ctrl) (gene SIK1): 1.314
log2 (TD/Ctrl) (gene SLC6A17): 1.471
log2 (TD/Ctrl) (gene SMOX): 1.374
log2 (TD/Ctrl) (gene SNAP25): 1.562
log2 (TD/Ctrl) (gene SPRY4): 1.6
log2 (TD/Ctrl) (gene SV2C): 6.783
log2 (TD/Ctrl) (gene SYAP1): 1.387
log2 (TD/Ctrl) (gene SYT4): 2.682
log2 (TD/Ctrl) (gene TAC1): 2.759
log2 (TD/Ctrl) (gene TCIM): 4.105
log2 (TD/Ctrl) (gene TENT5A): 1.411
log2 (TD/Ctrl) (gene TNC): 1.312
log2 (TD/Ctrl) (gene TSC22D3): 1.013
log2 (TD/Ctrl) (gene UBE2QL1): 2.108
log2 (TD/Ctrl) (gene UGT3A1): 3.442
log2 (TD/Ctrl) (gene USH1C): 2.824
log2 (TD/Ctrl) (gene VGF): 2.119

Like-named read-outs stand apart in the source and are kept apart here.
